These are literature values, as cited in patent publication US5756125A (G. D. Searle & Co., priority 1995, dated 1998).

The conditions of data set [1]: background statement.
A further data set deals with gastrointestinal tract. The settings on record: background statement.

Consider `COc1ccc2cc([C@H](C)C(=O)O)ccc2c1` [Naproxen sodium], for which the rate of absorption result in data set [1] is reported as “comparatively faster rate of absorption”. Also, the “irritancy to the gastrointestinal tract” value in the data set with gastrointestinal tract is on record as “irritants to the gastrointestinal tract”.

Regarding `COc1ccc2cc([C@H](C)C(=O)O)ccc2c1` [Naproxen, (S)-6-methoxy-α-methyl-2-naphthaleneacetic acid], the rate of absorption entry in data set [1] was “comparatively slow rate of absorption”. In the data set with gastrointestinal tract, the “irritancy to the gastrointestinal tract” value is reported as “irritants to the gastrointestinal tract”.
